Experimental data from the supplement of paper PMC3334620.
The full ranking holds about 33,000 sequences; the median of “E-score (-0.5 to 0.5)” is about -0.0034, and the highest 2% start at about 0.25. The list shows a part of the results.

What follows are sequences tested against T1, Yap3 (UniProt P38749) (assay: PBM E-score (8-mer binding enrichment) (E-score (-0.5 to 0.5)); higher = stronger / more preferred TF binding). Conditions: protein concentration: 100 nM; construct: GST-full length.
T1 sequence: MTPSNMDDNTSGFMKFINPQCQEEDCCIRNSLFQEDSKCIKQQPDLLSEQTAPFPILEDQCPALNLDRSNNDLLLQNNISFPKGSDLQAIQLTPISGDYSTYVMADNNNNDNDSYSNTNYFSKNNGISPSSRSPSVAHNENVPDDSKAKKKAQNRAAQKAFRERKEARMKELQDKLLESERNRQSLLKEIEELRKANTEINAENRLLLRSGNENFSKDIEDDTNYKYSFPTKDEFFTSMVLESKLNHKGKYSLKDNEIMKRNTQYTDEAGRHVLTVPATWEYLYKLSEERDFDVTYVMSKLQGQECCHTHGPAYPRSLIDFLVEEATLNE
Method in brief: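 GST-tagged yeast TFs (full-length or DNA-binding domain) were made by PURExpress in vitro transcription/translation and applied at about 100-200 nM to universal all-10-mer Agilent arrays. The arrays were made double-stranded by primer extension, on fresh or once-stripped slides. Bound protein was detected with fluorescent anti-GST, and scans were normalised with masliner. Each ungapped eight-base word, pooled with its reverse complement, received an E-score (modified Wilcoxon-Mann-Whitney statistic) from the Universal PBM Analysis Suite.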

Sequence	PBM E-score
GATATTTA	0.149
TAGTTGCA	-0.0088
ACGCTGGA	-0.0371
CTGTTATC	0.164
CCACGACA	-0.0716
CAGGGAGG	-0.345
GGAGAATA	0.136
GCCGCAGC	-0.24
ACCTCATG	-0.289
GTGTCCAA	0.111
GTAATTAC	0.306
ACCGTAGC	-0.0405
CGTGCGGC	-0.0562
CAGAAGCG	0.0947
GTTTTAAA	0.235
GCGGGTGA	-0.0914
AGTATCAA	0.159
CCGCTTCG	-0.169
CGGTTGGA	0.0109
AACAAGCA	0.0699
CCGGCGCG	-0.133
ATCATCAG	0.113
TATGTAAA	0.262
TTTACAAA	0.262
ATTGAAAT	0.263

A section from further up, for reference:
Sequence	PBM E-score
AACAAGCA	0.0699
CCGGCGCG	-0.133
ATCATCAG	0.113

(listing goes on)

Sequence	PBM E-score
AGATGGTG	-0.132
ATTGCAGG	0.073
GAGACAGA	0.0683
ATTCGGTC	0.0853
AAACGTCA	-0.104
CCACTACG	0.0351
GGTGGGCA	0.0503
ACCGCGCA	0.031
GTTGGCCA	-0.173
GAACGAGA	0.104
ACGGACGC	-0.114
CAACGCGA	0.102
TAAATTAA	0.234
ACGACAAC	0.197
ATGTGAAC	0.0896
AGCGCTTA	0.0641
ATATTAAT	0.351
GGCGCTTA	-0.239
ATCTAGCA	0.115
ATTGCACC	0.0372
CCTTGATA	0.12
ACGATAAA	0.0463
ACGTCCCT	-0.0631
ATATCTGC	-0.0964
ACTGCCCG	0.0277

Sequence	PBM E-score
TAGGCCCA	-0.198
CTCAAACA	0.203
AAAGTAGG	0.231
AGAGGCTG	-0.306
ACATGTAA	0.184
GCCTTGGA	-0.115
AACTCTCT	0.057
GTTGACTA	0.0363
CTAAAGAA	0.0205
ACCGCGGG	0.0395
AACCACCA	0.0808
AACGCTTC	-0.0152
ACATACTA	0.212
CTCTAGAC	-0.185
ATGAAAAG	0.122
AGCCGCAT	0.025
ACTGCTTA	0.00361
CACCATTA	0.159
ACCACAGA	-0.0994
AAATCGTC	0.0202
AGAGCCAG	-0.175
CATCTCGG	0.00528
ATATGACG	0.134
AAGTGGCA	0.0555
GATGCCCC	-0.238

Sequence	PBM E-score
AGCCCCGC	-0.145
CGCTAATA	0.0177
GTTAAACA	0.144
CTGCCTCA	-0.103
GATTAGCA	0.108
TCGCAACA	-0.00199
ATTGACCA	0.0958
GCAATGGA	0.0106
ACTACCGG	-0.1
CTGGGGCC	-0.311
AAACAAGT	0.147
GCAATTCC	-0.0127
ATGTTGAG	0.0495
AACTTTGG	-0.043
ACCACATC	0.0205
AACAGGTG	-0.0407
CCAAATCG	-0.154
ACAATACC	0.14
GGGGTACA	-0.267
CCTCAGAC	0.0436
TGGTCACA	-0.0455
GGGGAACC	-0.316
AGCAACCT	-0.129
CTGACCAA	0.153
GCACCCCC	-0.276

Sequence	PBM E-score
ACCGTGAT	0.0952
ACCTGACG	-0.116
ACCGGGTG	-0.17
ACCACGTC	-0.0114
CTCTCGTA	-0.063
AGCAGTAC	0.0364
ATACATCA	0.207
ACTAGCGA	-0.201
AAACGGCA	0.117
GTCTTCAA	-0.075
CCTTCAGC	-0.0432
CCGCGGAG	0.0132
CAGACATA	0.0209
CCCTACGG	-0.226
CGCGTAGC	-0.052
GATCACGA	0.109
CTAGAATA	0.0631
ATACTCGC	0.161
GACACTAC	0.0232
CAGAGGTA	0.0613
GGATCCAC	-0.0381
GATGCCGC	-0.201
GGGCTCAA	-0.101
AATTCGCA	0.16
GGCGTAGA	-0.0933

Pulled one by one from the entries so far:
Sequence	PBM E-score
ACCTGACG	-0.116
ACCGGGTG	-0.17
GGATCCAC	-0.0381

Later entries:

Sequence	PBM E-score
CGAGCTCG	0.196
CTAACACC	0.0413
ACAGCTCC	-0.0502
GATGTTCC	-0.0548
ATTCGTAC	0.22
AAGAGATA	-0.0203
AAATGTAG	0.0746
TACAATCA	0.138
GAGCACTA	-0.0463
ATCGCAAA	0.116
CGAAGTCA	-0.0925
ATTCGCTC	0.11
TATTGCCA	0.105
GCGCTGGA	-0.214
AGCGTTGG	-0.0491
GCTGCCCA	-0.328
AAGATGGA	0.0527
GCTAATCA	0.164
GATCAGGC	-0.0869
ATTGAGTG	0.0357
AGTCTAGA	-0.202
TCCAAGGA	-0.0575
CGTGCTAA	-0.0383
CCATTTGA	-0.0292
ACCCTCCC	0.0821

Sequence	PBM E-score
AATCTTGT	0.103
GTCGCAGA	-0.0305
GATCGACA	-0.00076
ACGTCAAC	-0.0222
TACTCCAA	0.115
TCTTCGCA	0.133
CTTCAGTC	-0.0116
AACGAAGG	-0.0577
ACGAGCCC	-0.129
CAACTCAC	0.0028
GCAGAATA	0.208
CAGTCTGG	-0.24
ATACGGGC	-0.147
ATACCGAA	0.108
ATTCTATG	0.129
AGGATATG	0.201
TGAACAAA	0.248
AGACCCCC	-0.455
ATCTATTA	0.251
CCCCTGAA	0.0163
ATGTATGG	-0.0299
AGCGCGGA	0.124
CTTTGCCC	-0.176
ACGCACTA	0.0231
GCTAGTTA	-0.0255

Sequence	PBM E-score
AAGGGTAG	-0.16
CCTTCAAG	-0.214
AGCACGAT	-0.052
CATCCAAG	-0.099
ACTGTTGA	-0.0113
AGTATCTG	-0.148
ACGATGCA	-0.0134
ATAGTAGA	0.188
GAGGTATA	0.185
TATATGAA	0.203
CGTGGTTA	-0.0282
CGAAAGCC	-0.236
CCGCCTTA	-0.232
CAGGTTGG	-0.0354
ACAATGCA	0.128
CCGCACGG	-0.117
ATGTTCAA	0.00069
AGATTCCA	0.15
AAGTTCCT	-0.0895
AGTACTAA	0.222
AGTCCGTC	-0.0473
AAGACACG	0.141
ATCGACGC	0.0589
GCGATACC	-0.067
CCTTAGCA	-0.102

Sequence	PBM E-score
AGAACTGA	0.114
ATGGGGCG	-0.111
TCTGGCCA	-0.0631
GCGGTTGA	0.104
GGATTAAA	0.154
ATTTAGTA	0.289
GGCCAGAC	-0.156
TATACGAA	0.182
GGCCAACC	-0.171
AATTCCAC	0.129
ACACTCCT	-0.086
AATGATAA	0.177
GGACCCCC	-0.471
GAGCGCGC	0.121
AAGTTCAT	0.0239
CACGTTGC	-0.183
AGGGAGTA	-0.02
AGGTCGAC	0.18
AGGCGGCC	-0.208
AGACCACC	-0.209
ACTTGCAC	0.0734
GCGCAAAA	0.0616
AAATGTGG	0.12
ACTGGCAA	0.0804
ACCGTAAA	0.0661

Sequence	PBM E-score
AAACGTAT	0.145
ATCAAGGG	0.0005
AAATATGG	0.0893
CTTGGGCC	-0.341
CGAGCACC	-0.0918
ACGACGAT	0.0903
GTATCAAC	0.017
CAGGATTA	0.109
TATCGAAA	0.19
CTTGTCGC	-0.1
TACGCATA	0.159
AACTAAAG	0.12
AGGGAACA	-0.0788
ACTGAGAT	0.0878
GCGATCCC	-0.303
GCGCCCGC	-0.193
TCAATTGA	0.0705
GCAAGAAC	0.177
CCAGCGCG	-0.0856
CATCGGTC	-0.0737
AGACCTTC	-0.113
GCCCATCA	-0.185
CAGAGATG	-0.00542
CATCTTCA	-0.0969
CCTGACTC	-0.0934

Sequence	PBM E-score
CCCAAGAC	-0.216
CTCTCGCA	-0.166
AACTGAAA	0.195
GTGATTTA	0.261
TAGGCACA	-0.0487
CAGAGATC	-0.127
TCCGGGAA	0.059
CCCTTGTA	-0.154
GGGTTGAC	-0.191
AAAAGGAG	-0.101
GCATGCCC	0.0351
ATCCAGTA	0.111
AGACGACG	-0.089
AATTTTTG	0.114
AATCGTGG	0.204
CCCTCACG	-0.151
AACGGCAC	-0.0741
CTCCGAAG	-0.129
CAGAAATA	0.16
CTACAGAA	0.239
CCTTTGTC	0.0874
ATCATCGC	0.059
GAGCTCGA	0.145
ATGCCCTC	-0.106
CCTACAGC	-0.033

Sequence	PBM E-score
CGGCCGGA	-0.0466
TCTAACCA	0.116
CCCACAGG	-0.16
CCGCTTAG	-0.0568
AAACATTA	0.0126
AAGCACGG	-0.0733
TGAGGACA	0.166
AAGTCAAA	0.0553
GCTCGCAC	-0.0525
ATTTTAAG	0.139
ACAGGCTA	-0.113
TGATTAAA	0.113
ACCGAGAT	0.0672
CACTCTCG	0.167
AGGTAACG	-0.00572
AAGGGCGT	-0.147
CATTTTCG	0.106
CCAGACAC	-0.222
CTCGGTCC	-0.106
CGCCCAAG	-0.158
TCGAATAA	0.162
CGTGATAG	0.122
CATTACCC	-0.0516
CGGTTACA	0.147
CTAAACTA	0.0415

Single entries from the entries so far.
For PBM E-score, AACTAAAG is listed with 0.12
For PBM E-score, AAATATGG is listed with 0.0893
For PBM E-score, CAACTCAC is listed with 0.0028
For PBM E-score, CAGGATTA is listed with 0.109
For PBM E-score, CTCCGAAG is listed with -0.129

Remaining list, next part.

Sequence	PBM E-score
CATCGCCC	-0.203
GCCCTGCA	-0.273
CTCCTGAA	-0.0154
AACCGAAG	-0.0403
AGACGTAA	0.102
AAGATACC	0.197
CGGCTGTA	-0.147
GGATAGAA	0.178
GCTAGACA	-0.0293
CCTGCGAG	-0.159
ATCCCGTG	0.127
AGGAGCTG	-0.207
AAGGGCGA	-0.193
CACACTCC	-0.0341
ACAGGGCG	0.00352
TCCAGGGA	-0.252
CGGGAGAC	-0.103
GCTCGGGA	-0.121
AACATATC	0.189
AGCGCCAG	-0.208
CTGAATGC	-0.0638
ATCCATTG	0.109
GGCATGGA	0.0929
GTTATGTA	0.151
AGCACCCT	-0.227

Sequence	PBM E-score
CCTGTCAA	-0.0447
ACTCAGGC	-0.0336
ATCTTGGC	-0.00939
GAACAGTC	-0.123
AGAAAGAG	-0.0188
AGGTGCCC	-0.273
CAGGATAG	0.0143
ATGAACAT	0.241
CAAACTAG	-0.144
CCCGTTTC	-0.0586
ATGTGTGA	0.0467
ATCTTTCC	0.0904
GATACGTA	-0.0185
CCATGCCA	-0.0801
CAAGGTCA	-0.16
ATTCTCGC	-0.173
AGTGAAAG	0.00072
AAGTAATC	0.153
ATCAGTTA	0.272
